Results: article PMC7993737
Results are given in words; binding and its absence hold for the method and conditions named. Binding seen in cells or lysates may run through a third protein. Some results given as binding are weak or reduced against the parent protein; the word gives no strength.

By UniProt entry, the sequences of proteins in these tests, tags left out.
UniProt Q8N6T7: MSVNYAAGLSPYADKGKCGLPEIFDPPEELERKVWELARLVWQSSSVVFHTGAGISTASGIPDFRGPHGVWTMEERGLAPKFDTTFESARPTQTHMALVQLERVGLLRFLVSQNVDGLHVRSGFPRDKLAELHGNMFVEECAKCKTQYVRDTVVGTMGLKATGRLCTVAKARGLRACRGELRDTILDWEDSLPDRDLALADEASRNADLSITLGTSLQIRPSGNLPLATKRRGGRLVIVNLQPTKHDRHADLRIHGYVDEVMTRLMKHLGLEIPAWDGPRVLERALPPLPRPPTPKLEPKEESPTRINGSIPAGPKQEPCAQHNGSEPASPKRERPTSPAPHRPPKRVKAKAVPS
UniProt P25490: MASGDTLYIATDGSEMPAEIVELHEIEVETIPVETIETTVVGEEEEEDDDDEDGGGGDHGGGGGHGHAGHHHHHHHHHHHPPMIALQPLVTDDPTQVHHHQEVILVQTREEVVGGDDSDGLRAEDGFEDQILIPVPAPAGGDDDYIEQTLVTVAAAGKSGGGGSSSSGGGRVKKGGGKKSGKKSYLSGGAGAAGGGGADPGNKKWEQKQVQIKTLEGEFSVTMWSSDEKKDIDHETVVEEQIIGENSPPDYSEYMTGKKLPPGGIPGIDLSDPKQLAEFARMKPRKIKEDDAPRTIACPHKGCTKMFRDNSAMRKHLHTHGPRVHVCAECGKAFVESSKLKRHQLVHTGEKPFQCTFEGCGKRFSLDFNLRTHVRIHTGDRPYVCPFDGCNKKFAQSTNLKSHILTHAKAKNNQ

Legend:
[1] = target: SIRT6-Flag (from pCMV-Sirt6-Flag) (UniProt Q8N6T7); test: co-IP; SH-SY5Y cells transfected with pCMV-Sirt6-Flag and pCMV-YY1-Flag, mock cells as negative controls; cleared lysate (150mM KCl, 0.1% Triton X-100, 25mM Tris pH 7.5, 5% glycerol, 0.2mM EDTA, 1mM DTT) on Anti-Flag Affinity gel 2 hours at 4 C; washes with 150mM and 300mM KCl buffer; eluted with flag peptide; immunoblot
[2] = target: YY1-Flag (from pCMV-YY1-Flag) (UniProt P25490); test: as above

binding [1] | binding [2] | Substance
binds |  | YY1 (detected with anti-YY1 in the Flag eluate of SIRT6-Flag cells) (from UniProt P25490 1-414)
 | binds | SIRT6 (detected with anti-SIRT6 in the Flag eluate of YY1-Flag cells) (from UniProt Q8N6T7 1-355)
